In publication PMC6134139:
Numbering of substitutions follows the chain as printed. No constants are given. Whether binding was seen depends on the method and setting. In cells and extracts the contact can be indirect. Some entries that bind do so weakly or less than the wild type. Where a sequence is shown, tags or fusion partners need not be part of it.

By UniProt entry, the sequences of proteins in these tests, tags left out.
UniProt Q96GD4: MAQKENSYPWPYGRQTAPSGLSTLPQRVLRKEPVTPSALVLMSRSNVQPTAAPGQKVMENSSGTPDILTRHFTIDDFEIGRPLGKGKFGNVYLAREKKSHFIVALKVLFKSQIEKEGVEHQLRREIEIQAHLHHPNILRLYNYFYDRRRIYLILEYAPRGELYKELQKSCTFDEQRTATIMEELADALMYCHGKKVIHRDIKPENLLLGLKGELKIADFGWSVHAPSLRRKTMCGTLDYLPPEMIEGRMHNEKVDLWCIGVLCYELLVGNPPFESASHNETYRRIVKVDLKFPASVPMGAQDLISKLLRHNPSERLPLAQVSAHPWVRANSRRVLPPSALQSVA

How the values were obtained:
[1] = target: T1, Flag-tagged full-length RecQL4 (human) (UniProt O94761); test: co-IP; anti-Flag M2 affinity gel; whole-cell lysates of transfected 293T cells, 1.0 mg protein in lysis buffer (50 mM Tris-HCl pH 7.5, 150 mM NaCl, 1% NP-40, 5 mM EDTA, 5 mM EGTA); 4 °C, 3-4 h; Western blot
T1 sequence: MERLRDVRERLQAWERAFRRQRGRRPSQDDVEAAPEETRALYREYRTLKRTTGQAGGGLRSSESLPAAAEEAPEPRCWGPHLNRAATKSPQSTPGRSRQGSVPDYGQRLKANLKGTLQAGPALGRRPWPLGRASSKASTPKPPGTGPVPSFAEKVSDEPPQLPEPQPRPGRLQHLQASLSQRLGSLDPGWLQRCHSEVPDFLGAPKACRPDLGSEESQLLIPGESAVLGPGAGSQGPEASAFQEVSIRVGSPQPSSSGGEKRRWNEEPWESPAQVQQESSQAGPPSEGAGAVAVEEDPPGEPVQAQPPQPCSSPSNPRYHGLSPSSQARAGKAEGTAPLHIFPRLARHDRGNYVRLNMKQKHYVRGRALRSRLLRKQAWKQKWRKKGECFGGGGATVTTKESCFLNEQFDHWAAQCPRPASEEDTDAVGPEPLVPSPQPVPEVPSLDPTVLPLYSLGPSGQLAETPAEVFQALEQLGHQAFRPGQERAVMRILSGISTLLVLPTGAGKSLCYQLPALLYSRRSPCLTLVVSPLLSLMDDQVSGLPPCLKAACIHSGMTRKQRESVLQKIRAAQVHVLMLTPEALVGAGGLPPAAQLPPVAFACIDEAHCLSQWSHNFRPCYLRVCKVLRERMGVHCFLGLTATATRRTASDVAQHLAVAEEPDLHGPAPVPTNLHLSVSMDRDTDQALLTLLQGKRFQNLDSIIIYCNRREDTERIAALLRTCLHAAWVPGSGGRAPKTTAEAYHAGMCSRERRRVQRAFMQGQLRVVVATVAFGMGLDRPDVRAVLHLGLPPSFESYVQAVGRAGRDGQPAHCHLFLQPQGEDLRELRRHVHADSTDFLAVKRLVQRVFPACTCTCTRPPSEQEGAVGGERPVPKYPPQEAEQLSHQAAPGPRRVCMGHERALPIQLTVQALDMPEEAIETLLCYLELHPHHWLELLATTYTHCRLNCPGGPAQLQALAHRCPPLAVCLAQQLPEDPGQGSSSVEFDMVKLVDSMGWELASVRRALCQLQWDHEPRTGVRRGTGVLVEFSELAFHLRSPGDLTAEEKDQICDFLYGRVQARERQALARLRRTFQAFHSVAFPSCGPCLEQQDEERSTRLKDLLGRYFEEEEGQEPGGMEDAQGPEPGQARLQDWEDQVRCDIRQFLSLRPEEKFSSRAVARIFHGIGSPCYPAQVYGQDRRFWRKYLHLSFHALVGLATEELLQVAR

[2] = target: T2, Flag-tagged RecQL4 K508M (helicase domain mutant) (human) (UniProt O94761); test: as above
T2 sequence: T1 sequence with K508M

endogenous (native) Aurora B kinase (AURKB) of 293T cells (from UniProt Q96GD4 1-344)
binding [1]: binds | binding [2]: binds
